Experimental data: PubChem BioAssay AID743121 (NCATS, 2013)
Test: 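Genes whose silencing strengthens cell killing by camptothecin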 (primary screen). Cells: MDA-MB-231 cells, a human breast cancer line. Reagent: single siRNA against human genes, 20 nM siRNA (0.8 pmol per well). Timing: 120 h (drug added 48 h after transfection, read 72 h later). Conditions: camptothecin 20 nM (about EC30) for 72 h; vehicle 0.1% DMSO in parallel plates. Measured: 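CellTiter-Glo ATP signal, scaled to control siRNA as percent viability; sensitisation given as log2 of untreated divided by camptothecin-treated viability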. Direction: log2 vehicle/camptothecin viability: higher = stronger sensitisation to camptothecin; viability with camptothecin and viability without drug: higher = more viable cells. Hit rule: 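Each gene scored by redundant siRNA activity (RSA) over its individual siRNA ratios; a gene is called active at p < 0.001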.
The deposit covers about 26,000 reagents; shown is an unselected part. In the full data, 167 (0.63%) are marked active. 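Calls are per gene from RSA p-values that are not deposited; an individual active-marked siRNA can sensitise only weakly.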 Unmarked entries are inactive. The numbers tell different reagents against one gene apart.

gene knocked down	siRNA no.	log2 vehicle/camptothecin viability	viability with camptothecin (% of control)	viability without drug (% of control)
PTGER1 (prostaglandin E receptor 1)	1	-0.606	30.1	19.8
PTGER1 (prostaglandin E receptor 1)	2	-0.404	69.9	52.8
PTGER1 (prostaglandin E receptor 1)	3	-0.431	30	22.3
PTGER1 (prostaglandin E receptor 1)	4	-0.00741	82	81.6
PNLIP (pancreatic lipase)	1	-0.393	83.7	63.7
PNLIP (pancreatic lipase)	2	0.606	14.3	21.7
PNLIP (pancreatic lipase)	3	0.314	83.9	104
PNLIP (pancreatic lipase)	4	-0.252	93.8	78.8
AMPD3 (adenosine monophosphate deaminase 3)	1	0.878	23.5	43.2
AMPD3 (adenosine monophosphate deaminase 3)	2	-0.114	105	96.8
AMPD3 (adenosine monophosphate deaminase 3)	3	-0.373	101	77.7
AMPD3 (adenosine monophosphate deaminase 3)	4	-0.274	92.4	76.4
CACNA2D3	1	-0.133	73.4	66.9
CACNA2D3	2	-0.137	117	106
CACNA2D3	3	-0.0824	84.5	79.8
CACNA2D3	4	-0.388	108	82.8
F9 (coagulation factor IX)	1	0.00385	102	102
F9 (coagulation factor IX)	2	-0.0635	62.5	59.8
F9 (coagulation factor IX)	3	-0.0588	84.7	81.3
F9 (coagulation factor IX)	4	-0.0113	61.9	61.4
CYP3A43 (cytochrome P450 family 3 subfamily A member 43)	1	-0.282	84.2	69.3
CYP3A43 (cytochrome P450 family 3 subfamily A member 43)	2	-0.381	89.4	68.6
CYP3A43 (cytochrome P450 family 3 subfamily A member 43)	3	-0.225	105	89.4
CYP3A43 (cytochrome P450 family 3 subfamily A member 43)	4	-0.289	77.5	63.5
PDE8B (phosphodiesterase 8B)	1	-0.366	109	84.8
PDE8B (phosphodiesterase 8B)	2	-0.403	76.8	58.1
PDE8B (phosphodiesterase 8B)	3	-0.172	107	95.2
PDE8B (phosphodiesterase 8B)	4	-0.466	64.4	46.7

An excerpt from above, limited to “log2 vehicle/camptothecin viability”.
PTGER1 (prostaglandin E receptor 1) #4 = -0.00741
PNLIP (pancreatic lipase) #1 = -0.393
PNLIP (pancreatic lipase) #2 = 0.606
PNLIP (pancreatic lipase) #3 = 0.314

Further entries:
gene knocked down	siRNA no.	log2 vehicle/camptothecin viability	viability with camptothecin (% of control)	viability without drug (% of control)
HHEX (hematopoietically expressed homeobox)	1	0.136	93.4	103
HHEX (hematopoietically expressed homeobox)	2	0.362	39.5	50.8
HHEX (hematopoietically expressed homeobox)	3	0.051	99	103
HHEX (hematopoietically expressed homeobox)	4	0.00681	70.5	70.8
TRPC5	1	-0.28	21.9	18.1
TRPC5	2	-0.101	76.9	71.7
TRPC5	3	-0.0103	54.2	53.8
BCL7A (BAF chromatin remodeling complex subunit BCL7A)	1	1.46	9.99	27.5
BCL7A (BAF chromatin remodeling complex subunit BCL7A)	2	-0.265	99.6	82.9
BCL7A (BAF chromatin remodeling complex subunit BCL7A)	3	-0.552	69.9	47.7
BCL7A (BAF chromatin remodeling complex subunit BCL7A)	4	0.287	75.9	92.6
POU1F1 (POU class 1 homeobox 1)	1	-0.0149	81.3	80.5
POU1F1 (POU class 1 homeobox 1)	2	-0.076	107	102
POU1F1 (POU class 1 homeobox 1)	3	0.373	37.9	49.1
POU1F1 (POU class 1 homeobox 1)	4	-0.166	115	102
IFT54 (intraflagellar transport 54)	1	-0.355	63.3	49.5
IFT54 (intraflagellar transport 54)	2	-0.312	99.9	80.5
IFT54 (intraflagellar transport 54)	3	-0.283	116	95.4
SEMA3G (semaphorin 3G)	1	0.0915	72.4	77.1
SEMA3G (semaphorin 3G)	2	-0.502	69.7	49.2
SEMA3G (semaphorin 3G)	3	-0.216	74.9	64.5
SEMA3G (semaphorin 3G)	4	-0.000103	95.6	95.6
BCAR1 (BCAR1 scaffold protein, Cas family member)	1	-0.0717	51.1	48.7
BCAR1 (BCAR1 scaffold protein, Cas family member)	2	0.0282	51.4	52.5
BCAR1 (BCAR1 scaffold protein, Cas family member)	3	-0.476	55.6	40
BCAR1 (BCAR1 scaffold protein, Cas family member)	4	-0.177	66.4	58.7
SLC25A4	1	-0.16	108	97
SLC25A4	2	-0.521	74.7	52.1
SLC25A4	3	0.799	11.4	19.8
HMOX1 (heme oxygenase 1)	1	-0.249	63.2	53.1
HMOX1 (heme oxygenase 1)	2	-0.0316	30.6	29.9
HMOX1 (heme oxygenase 1)	3	-0.135	79.8	72.7
HMOX1 (heme oxygenase 1)	4	-0.0294	68.2	66.8
ZNF398 (zinc finger protein 398)	1	-0.156	107	96.2
ZNF398 (zinc finger protein 398)	2	0.258	62.5	74.7
ZNF398 (zinc finger protein 398)	3	-0.373	91.3	70.5
TMPRSS12 (transmembrane serine protease 12)	1	-0.507	86.9	61.1
TMPRSS12 (transmembrane serine protease 12)	2	-0.608	118	77.3
TMPRSS12 (transmembrane serine protease 12)	3	0.0436	97.7	101
TMPRSS12 (transmembrane serine protease 12)	4	0.00155	67.4	67.5
